# Measurements taken from the supplement of paper PMC7666118.
# The chains behind the UniProt entries cited, without tags or fusion partners. Where a name states a change or a piece, a line headed by the entry shows the natural chain unless it says otherwise.
# UniProt Q8TCD1: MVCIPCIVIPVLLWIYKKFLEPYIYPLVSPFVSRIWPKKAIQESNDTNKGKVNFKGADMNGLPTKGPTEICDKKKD
# UniProt Q9NX78: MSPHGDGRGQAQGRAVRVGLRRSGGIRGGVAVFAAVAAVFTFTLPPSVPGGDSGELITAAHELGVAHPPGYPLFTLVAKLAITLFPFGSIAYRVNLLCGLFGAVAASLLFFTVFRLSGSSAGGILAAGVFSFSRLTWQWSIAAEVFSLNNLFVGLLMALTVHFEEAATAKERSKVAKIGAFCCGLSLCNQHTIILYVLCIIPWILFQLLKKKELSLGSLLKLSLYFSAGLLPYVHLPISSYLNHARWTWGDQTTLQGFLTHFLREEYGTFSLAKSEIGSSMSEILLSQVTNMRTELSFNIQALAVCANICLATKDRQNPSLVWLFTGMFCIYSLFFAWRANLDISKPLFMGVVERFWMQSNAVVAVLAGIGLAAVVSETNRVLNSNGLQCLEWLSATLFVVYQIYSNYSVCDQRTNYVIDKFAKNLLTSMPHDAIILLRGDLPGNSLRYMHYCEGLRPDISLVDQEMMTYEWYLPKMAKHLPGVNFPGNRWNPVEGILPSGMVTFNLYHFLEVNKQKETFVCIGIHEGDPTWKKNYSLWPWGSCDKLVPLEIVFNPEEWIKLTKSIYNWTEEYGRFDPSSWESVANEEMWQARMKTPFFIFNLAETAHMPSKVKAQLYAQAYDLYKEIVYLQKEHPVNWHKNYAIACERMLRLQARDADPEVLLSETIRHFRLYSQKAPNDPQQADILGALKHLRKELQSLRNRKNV
# UniProt Q9H3K6: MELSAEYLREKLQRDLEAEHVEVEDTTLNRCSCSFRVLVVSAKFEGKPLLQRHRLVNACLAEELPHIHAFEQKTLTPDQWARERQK
# UniProt Q8TDN6: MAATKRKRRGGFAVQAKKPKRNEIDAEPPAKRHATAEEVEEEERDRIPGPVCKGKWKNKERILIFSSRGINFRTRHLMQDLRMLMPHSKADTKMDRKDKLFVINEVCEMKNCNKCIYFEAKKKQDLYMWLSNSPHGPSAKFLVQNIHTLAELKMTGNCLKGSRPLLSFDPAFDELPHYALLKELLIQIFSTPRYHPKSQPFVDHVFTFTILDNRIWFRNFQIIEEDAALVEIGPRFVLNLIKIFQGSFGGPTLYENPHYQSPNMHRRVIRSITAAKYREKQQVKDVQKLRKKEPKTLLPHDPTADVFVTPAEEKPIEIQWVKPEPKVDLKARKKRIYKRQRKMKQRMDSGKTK
# UniProt P15056, whole entry: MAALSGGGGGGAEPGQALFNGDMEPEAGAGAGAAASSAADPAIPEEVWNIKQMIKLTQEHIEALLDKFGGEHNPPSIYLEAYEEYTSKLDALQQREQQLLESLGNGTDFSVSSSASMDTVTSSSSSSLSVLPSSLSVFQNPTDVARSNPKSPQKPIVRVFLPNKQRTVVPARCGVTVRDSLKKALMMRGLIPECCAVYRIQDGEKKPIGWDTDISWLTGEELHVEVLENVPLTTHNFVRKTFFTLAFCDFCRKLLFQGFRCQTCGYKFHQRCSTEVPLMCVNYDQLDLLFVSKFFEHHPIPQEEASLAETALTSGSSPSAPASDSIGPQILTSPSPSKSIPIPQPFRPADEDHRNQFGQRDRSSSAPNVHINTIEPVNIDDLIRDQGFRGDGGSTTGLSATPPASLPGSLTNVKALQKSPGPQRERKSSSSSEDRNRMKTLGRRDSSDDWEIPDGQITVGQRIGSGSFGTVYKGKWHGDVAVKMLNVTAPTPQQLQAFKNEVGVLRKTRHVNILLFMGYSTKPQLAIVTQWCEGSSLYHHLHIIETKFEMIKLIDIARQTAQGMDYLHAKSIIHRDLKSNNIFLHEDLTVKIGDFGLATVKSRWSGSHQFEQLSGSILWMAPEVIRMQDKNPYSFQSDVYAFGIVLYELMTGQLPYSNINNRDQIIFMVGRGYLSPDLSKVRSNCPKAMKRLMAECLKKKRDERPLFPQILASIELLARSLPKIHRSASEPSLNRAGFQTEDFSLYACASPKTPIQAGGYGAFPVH
# UniProt Q14137: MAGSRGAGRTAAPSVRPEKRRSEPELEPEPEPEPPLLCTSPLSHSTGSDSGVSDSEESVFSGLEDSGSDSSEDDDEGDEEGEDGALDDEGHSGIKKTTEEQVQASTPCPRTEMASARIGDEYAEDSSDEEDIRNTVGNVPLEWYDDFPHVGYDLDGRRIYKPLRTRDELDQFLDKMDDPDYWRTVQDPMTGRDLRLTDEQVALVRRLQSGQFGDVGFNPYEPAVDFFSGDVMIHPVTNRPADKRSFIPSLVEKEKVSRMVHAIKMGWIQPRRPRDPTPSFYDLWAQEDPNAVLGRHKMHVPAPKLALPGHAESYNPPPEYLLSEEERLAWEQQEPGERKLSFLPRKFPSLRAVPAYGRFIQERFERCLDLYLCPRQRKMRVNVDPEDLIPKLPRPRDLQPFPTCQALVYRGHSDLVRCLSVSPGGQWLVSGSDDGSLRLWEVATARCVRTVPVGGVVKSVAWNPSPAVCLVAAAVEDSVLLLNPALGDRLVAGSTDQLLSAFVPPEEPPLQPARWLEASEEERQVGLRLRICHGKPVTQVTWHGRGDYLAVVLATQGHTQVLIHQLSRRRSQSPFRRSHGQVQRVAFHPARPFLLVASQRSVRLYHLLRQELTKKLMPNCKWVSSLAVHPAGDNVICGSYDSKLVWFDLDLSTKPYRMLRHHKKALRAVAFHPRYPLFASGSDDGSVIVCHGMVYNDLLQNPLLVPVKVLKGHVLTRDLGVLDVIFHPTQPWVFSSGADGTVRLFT
# UniProt P12694: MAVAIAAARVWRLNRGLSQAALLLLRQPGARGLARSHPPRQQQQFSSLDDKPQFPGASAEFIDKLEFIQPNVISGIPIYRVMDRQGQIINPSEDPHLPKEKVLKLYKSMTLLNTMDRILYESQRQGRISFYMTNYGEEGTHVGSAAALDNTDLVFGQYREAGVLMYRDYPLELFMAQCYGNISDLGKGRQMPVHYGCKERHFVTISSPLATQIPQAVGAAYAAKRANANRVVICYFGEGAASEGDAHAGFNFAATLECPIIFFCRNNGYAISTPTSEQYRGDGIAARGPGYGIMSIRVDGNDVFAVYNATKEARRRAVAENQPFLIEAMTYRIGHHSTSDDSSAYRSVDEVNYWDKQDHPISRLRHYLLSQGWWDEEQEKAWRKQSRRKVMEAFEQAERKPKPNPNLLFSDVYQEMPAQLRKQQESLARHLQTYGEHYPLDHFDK
# UniProt Q9NYM9: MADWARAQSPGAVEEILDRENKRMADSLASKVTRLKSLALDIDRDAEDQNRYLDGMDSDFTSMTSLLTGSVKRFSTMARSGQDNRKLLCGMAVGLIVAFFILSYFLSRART
# UniProt Q93084: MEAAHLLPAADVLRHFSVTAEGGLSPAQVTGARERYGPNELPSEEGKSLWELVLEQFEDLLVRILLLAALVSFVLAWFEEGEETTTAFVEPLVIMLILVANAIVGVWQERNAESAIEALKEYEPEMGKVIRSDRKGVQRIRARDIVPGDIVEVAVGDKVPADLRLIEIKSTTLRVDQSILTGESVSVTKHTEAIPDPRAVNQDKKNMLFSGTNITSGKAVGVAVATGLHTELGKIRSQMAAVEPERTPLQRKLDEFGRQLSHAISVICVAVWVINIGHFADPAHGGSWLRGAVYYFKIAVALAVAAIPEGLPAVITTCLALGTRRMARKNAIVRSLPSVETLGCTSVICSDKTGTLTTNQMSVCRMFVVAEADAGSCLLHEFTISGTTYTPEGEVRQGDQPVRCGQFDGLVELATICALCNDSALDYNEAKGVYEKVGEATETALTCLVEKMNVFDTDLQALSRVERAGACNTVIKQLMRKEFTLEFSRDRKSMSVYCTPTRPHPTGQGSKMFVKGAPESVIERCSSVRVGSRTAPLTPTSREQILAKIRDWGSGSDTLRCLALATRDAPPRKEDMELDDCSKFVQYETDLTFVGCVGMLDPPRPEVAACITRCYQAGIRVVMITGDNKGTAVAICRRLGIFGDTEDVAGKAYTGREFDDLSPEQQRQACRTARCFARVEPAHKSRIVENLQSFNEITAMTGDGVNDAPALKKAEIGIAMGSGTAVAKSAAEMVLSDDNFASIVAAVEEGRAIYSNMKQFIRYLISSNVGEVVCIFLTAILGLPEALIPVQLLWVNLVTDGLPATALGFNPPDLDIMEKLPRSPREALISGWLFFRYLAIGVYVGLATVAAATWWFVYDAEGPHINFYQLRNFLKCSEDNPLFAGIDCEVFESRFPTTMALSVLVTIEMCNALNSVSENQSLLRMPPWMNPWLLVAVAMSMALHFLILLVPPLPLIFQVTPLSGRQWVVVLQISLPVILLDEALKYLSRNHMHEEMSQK
# UniProt Q9NQS1: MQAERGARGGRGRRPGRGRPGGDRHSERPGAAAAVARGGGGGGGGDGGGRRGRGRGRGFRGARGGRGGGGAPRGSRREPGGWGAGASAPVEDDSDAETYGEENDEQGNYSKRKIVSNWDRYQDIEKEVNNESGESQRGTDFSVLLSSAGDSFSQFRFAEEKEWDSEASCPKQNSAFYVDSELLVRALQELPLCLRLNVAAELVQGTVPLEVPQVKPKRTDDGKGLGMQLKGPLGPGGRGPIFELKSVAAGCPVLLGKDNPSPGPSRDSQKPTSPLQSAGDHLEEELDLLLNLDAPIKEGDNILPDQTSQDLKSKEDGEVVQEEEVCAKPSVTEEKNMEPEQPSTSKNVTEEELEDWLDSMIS
# UniProt P51572: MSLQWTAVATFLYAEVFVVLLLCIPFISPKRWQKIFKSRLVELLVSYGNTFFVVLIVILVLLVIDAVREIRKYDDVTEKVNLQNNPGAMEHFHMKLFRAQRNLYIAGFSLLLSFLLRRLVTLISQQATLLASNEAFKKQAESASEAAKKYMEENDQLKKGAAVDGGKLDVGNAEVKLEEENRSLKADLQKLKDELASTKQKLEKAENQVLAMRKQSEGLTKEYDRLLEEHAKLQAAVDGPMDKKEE
# UniProt Q96JN0: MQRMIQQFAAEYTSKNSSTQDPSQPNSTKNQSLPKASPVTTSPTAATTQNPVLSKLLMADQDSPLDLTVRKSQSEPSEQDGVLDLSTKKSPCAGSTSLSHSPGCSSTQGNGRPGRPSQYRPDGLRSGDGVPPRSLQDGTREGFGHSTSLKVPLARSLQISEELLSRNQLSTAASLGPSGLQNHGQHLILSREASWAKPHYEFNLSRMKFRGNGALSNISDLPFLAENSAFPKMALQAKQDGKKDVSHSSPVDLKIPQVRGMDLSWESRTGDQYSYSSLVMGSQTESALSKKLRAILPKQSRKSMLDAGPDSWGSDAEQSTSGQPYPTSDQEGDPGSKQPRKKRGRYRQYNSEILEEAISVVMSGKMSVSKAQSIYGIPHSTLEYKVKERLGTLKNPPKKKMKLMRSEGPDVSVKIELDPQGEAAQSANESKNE
# UniProt Q9HBH7: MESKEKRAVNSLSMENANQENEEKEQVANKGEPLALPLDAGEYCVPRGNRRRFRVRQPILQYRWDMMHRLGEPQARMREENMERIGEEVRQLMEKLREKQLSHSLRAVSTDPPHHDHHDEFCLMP
# UniProt Q8WWM7: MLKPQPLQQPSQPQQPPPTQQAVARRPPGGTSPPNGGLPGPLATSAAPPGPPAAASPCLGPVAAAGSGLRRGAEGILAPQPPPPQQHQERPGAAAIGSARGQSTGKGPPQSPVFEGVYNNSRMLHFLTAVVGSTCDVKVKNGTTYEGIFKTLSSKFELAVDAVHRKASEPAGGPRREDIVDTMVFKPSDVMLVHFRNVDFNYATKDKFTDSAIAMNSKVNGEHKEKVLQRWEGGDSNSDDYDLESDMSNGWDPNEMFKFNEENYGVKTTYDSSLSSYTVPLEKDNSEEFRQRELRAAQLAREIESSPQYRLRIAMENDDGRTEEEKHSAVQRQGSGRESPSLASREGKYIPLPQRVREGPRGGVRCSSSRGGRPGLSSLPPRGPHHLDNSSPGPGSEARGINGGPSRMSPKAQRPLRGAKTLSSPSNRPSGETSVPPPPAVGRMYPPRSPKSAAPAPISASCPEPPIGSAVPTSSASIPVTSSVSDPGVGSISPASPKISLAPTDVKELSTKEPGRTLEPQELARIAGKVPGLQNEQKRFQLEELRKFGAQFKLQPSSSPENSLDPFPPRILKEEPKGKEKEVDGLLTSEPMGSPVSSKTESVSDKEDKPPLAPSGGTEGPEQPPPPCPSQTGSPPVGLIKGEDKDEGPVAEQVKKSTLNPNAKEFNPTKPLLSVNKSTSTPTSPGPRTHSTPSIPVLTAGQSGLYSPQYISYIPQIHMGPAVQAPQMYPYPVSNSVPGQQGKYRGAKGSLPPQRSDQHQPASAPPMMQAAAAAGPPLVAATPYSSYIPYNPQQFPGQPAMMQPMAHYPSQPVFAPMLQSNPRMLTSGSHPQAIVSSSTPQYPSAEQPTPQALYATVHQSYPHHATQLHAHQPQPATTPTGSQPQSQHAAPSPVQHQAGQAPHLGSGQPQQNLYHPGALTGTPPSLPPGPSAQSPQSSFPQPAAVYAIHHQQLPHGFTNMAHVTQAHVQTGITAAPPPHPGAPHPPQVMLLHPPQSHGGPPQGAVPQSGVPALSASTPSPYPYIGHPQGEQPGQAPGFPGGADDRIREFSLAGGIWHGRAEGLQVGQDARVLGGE
# The other results are listed elsewhere or left out.
# Compound: COc1ccc(Cn2ccc3cc(C)c(C(=O)NO)cc32)cc1
# Assay: dose-dependent thermal stabilisation call (2D-TPP, DLPTP, 10% FDR) (binary (1 = stabilised)); higher = stabilised by the compound
# Details: system: HL-60 intact cells; concentration range 0.04-10 µM
# Procedure: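 2D thermal proteome profiling in intact HL-60 cells treated with BRD-3811 (0, 0.04, 0.29, 2, 10 uM) for 90 min at 37 C, then heated 3 min at one of 12 temperatures (42-63.9 C). Soluble protein was quantified by TMT10 MS. The value is the DLPTP call of the paper: dose-dependent thermal stabilisation over all temperatures at 10% FDR (F-test of a dose-response against a flat model); one experiment, one call per tested protein.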
row,Target,dose-dependent thermal stabilisation call
1,BPI (UniProt P17213),inactive: 0
2,BPGM (UniProt P07738),inactive: 0
3,C18ORF32 (UniProt Q8TCD1),inactive: 0
4,BIRC6 (UniProt Q9NR09),inactive: 0
5,C18ORF25 (UniProt Q96B23),inactive: 0
6,C14ORF101 (UniProt Q9NX78),inactive: 0
7,BOLA2 (UniProt Q9H3K6),inactive: 0
8,BXDC2 (UniProt Q8TDN6),inactive: 0
9,BRAF (UniProt P15056),inactive: 0
10,BTAF1 (UniProt O14981),inactive: 0
11,BOP1 (UniProt Q14137),inactive: 0
12,ATP5B (UniProt P06576),inactive: 0
13,BCKDHA (UniProt P12694),inactive: 0
14,C17ORF85 (UniProt Q53F19),inactive: 0
15,C10ORF2 (UniProt Q96RR1),inactive: 0
16,BET1L (UniProt Q9NYM9),inactive: 0
17,C12ORF11 (UniProt Q9NVM9),inactive: 0
18,BCL9 (UniProt O00512),inactive: 0

row,Target,dose-dependent thermal stabilisation call
1,BTK (UniProt Q06187),inactive: 0
2,C17ORF59 (UniProt Q96GS4),inactive: 0
3,BCKDK (UniProt O14874),inactive: 0
4,ATP2A3 (UniProt Q93084),inactive: 0
5,AVEN (UniProt Q9NQS1),inactive: 0
6,BZW2 (UniProt Q9Y6E2),inactive: 0
7,C15ORF23 (UniProt Q9Y448),inactive: 0
8,BCAP31 (UniProt P51572),inactive: 0
9,C16ORF42 (UniProt Q9UJK0),inactive: 0
10,UniProt B4DNJ8_HUMAN,inactive: 0
11,C10ORF12 (UniProt Q96JN0),inactive: 0
12,BEX1 (UniProt Q9HBH7),inactive: 0
13,ATRIP (UniProt Q8WXE1),inactive: 0
14,C16ORF13 (UniProt Q96S19),inactive: 0
15,ATXN2L (UniProt Q8WWM7),inactive: 0
16,UniProt B3GNT1,inactive: 0
17,ATPIF1 (UniProt Q9UII2),inactive: 0
18,BACH1 (UniProt O14867),inactive: 0

# 2 entries from above in another layout.
row | Target | dose-dependent thermal stabilisation call
7 | BOLA2 (UniProt Q9H3K6) | inactive: 0
8 | BXDC2 (UniProt Q8TDN6) | inactive: 0
